Experimental data from PMC12475854.
These are yes or no findings as the source states them, for the method shown. Binding seen in cells or lysates may run through a third protein. Some results given as binding are weak or reduced against the parent protein; the word gives no strength.

Protein sequences, listed by entry. Tags and fused reporters are not part of them.
UniProt O08539: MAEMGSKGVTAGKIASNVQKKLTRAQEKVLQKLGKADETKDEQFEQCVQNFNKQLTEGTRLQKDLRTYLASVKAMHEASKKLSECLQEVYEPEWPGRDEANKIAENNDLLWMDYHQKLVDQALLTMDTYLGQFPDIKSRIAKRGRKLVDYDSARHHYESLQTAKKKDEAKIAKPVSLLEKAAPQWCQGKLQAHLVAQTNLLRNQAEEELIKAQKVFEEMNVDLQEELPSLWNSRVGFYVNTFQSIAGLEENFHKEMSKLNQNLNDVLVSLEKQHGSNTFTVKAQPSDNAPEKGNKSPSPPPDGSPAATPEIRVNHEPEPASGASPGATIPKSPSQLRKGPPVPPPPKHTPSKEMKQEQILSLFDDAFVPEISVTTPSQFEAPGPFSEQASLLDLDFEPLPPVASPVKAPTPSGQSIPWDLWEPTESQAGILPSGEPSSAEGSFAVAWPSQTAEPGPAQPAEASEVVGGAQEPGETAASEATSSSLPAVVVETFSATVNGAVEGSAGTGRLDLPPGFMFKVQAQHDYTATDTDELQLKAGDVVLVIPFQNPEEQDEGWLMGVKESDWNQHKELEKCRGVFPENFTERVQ
UniProt Q8CHC4: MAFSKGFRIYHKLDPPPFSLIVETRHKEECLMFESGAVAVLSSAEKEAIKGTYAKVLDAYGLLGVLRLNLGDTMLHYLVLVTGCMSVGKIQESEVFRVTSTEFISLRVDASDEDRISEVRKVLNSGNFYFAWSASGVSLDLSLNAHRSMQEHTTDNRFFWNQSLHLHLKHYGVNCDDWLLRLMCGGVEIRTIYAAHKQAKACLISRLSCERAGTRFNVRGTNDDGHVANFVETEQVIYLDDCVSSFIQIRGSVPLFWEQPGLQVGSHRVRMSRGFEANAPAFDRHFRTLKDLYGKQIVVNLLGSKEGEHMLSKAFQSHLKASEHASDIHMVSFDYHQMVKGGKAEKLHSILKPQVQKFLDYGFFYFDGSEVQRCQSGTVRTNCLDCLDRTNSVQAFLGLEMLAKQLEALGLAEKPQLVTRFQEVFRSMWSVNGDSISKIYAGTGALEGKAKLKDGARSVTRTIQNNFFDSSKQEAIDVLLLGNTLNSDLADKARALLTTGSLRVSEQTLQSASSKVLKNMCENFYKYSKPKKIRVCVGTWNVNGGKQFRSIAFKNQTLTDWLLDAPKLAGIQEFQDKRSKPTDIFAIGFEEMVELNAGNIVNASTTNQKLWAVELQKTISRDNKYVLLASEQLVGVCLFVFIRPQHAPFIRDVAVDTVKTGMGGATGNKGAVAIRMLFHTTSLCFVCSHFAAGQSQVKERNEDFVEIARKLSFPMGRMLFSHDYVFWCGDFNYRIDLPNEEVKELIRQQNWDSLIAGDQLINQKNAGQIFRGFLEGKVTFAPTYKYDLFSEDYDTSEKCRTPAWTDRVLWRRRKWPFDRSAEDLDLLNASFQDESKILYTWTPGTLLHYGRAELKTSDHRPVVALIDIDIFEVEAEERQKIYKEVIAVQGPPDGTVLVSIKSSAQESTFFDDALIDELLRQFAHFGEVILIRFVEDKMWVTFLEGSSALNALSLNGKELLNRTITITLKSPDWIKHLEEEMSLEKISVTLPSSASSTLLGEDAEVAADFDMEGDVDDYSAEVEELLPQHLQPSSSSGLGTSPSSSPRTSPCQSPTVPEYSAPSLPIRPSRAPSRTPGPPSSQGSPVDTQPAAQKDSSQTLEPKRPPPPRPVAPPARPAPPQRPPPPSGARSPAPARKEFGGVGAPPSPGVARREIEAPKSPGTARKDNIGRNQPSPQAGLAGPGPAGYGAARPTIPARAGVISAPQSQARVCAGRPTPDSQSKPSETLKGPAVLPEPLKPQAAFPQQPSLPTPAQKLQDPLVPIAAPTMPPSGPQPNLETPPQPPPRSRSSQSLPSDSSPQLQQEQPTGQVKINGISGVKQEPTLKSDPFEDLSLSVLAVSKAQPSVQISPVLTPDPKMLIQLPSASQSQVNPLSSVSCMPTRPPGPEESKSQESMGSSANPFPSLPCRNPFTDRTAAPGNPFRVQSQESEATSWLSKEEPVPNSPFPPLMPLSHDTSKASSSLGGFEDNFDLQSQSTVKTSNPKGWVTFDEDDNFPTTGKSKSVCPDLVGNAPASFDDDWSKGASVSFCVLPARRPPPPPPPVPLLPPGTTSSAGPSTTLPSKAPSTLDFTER

Target: endogenous mouse BIN1 (mouse (endogenous in N2a and mouse brain)) (UniProt O08539)
Assay: proximity ligation; Duolink PLA on paraffin brain sections of Emx-Cre control mice with anti-BIN1 and an antibody against the partner; Emx-Cre:Bin1 knockout brain as negative control

Substance: SYNJ1 (from UniProt Q8CHC4 1-1574)
- binding: binds
